Experimental data reported in PMC12040762.
Results are given in words; binding and its absence hold for the method and conditions named. Binding seen in cells or lysates may run through a third protein. Some binding calls cover weakened binding; strength is not graded here. Blank lines part the entries; values can stand above or below the molecule they belong to.

Protein sequences, listed by entry. Tags and fused reporters are not part of them.
UniProt P29341: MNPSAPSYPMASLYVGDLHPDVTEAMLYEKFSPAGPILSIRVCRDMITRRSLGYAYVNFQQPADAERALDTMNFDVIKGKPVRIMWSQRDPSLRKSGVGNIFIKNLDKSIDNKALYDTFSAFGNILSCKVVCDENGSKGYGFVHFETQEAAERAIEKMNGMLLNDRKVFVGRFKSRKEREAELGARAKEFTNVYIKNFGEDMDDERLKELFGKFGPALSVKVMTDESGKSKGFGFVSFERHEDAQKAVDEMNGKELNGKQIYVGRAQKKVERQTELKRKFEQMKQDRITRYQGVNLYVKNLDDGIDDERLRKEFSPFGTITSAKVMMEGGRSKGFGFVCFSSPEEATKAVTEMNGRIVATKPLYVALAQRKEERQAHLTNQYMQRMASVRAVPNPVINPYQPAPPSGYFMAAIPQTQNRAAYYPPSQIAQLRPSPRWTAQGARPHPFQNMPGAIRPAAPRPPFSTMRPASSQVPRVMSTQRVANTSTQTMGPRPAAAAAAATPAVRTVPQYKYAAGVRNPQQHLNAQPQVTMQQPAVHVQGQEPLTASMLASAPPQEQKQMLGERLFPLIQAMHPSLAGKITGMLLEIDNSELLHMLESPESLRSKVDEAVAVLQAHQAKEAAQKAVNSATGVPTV

Assays:
[1] = target: T1, ADP-ribosylation factor collaborator (CARF) (mouse (endogenous in testis)) (UniProt Q8BI72); experiment: co-IP; mouse testis protein extracts; IP with antibody to CARF or to PABPC1, IgG as control; SDS-PAGE and western blot
T1 sequence: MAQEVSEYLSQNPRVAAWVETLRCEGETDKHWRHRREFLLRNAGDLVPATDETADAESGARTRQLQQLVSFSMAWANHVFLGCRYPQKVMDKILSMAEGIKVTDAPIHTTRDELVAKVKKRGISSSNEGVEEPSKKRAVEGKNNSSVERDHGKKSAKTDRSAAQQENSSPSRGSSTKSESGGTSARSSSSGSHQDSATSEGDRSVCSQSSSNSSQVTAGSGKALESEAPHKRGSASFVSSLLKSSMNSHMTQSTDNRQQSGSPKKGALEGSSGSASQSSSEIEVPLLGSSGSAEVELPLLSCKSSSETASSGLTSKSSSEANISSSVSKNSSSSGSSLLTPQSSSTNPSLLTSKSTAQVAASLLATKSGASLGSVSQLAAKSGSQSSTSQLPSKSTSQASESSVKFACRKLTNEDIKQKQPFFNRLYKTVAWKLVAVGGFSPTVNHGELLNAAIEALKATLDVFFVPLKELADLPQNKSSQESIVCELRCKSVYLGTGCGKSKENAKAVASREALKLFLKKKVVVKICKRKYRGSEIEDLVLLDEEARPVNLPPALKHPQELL

[2] = target: poly-A binding protein cytoplasmic 1 (PABPC1) (mouse (endogenous in testis)) (UniProt P29341); experiment: as above

binding [1]: binds
Molecule: poly-A binding protein cytoplasmic 1 (PABPC1) (from UniProt P29341 1-636)

binding [2]: binds
B1: ADP-ribosylation factor collaborator (CARF) (protein, UniProt Q8BI72 1-563)
chain: T1 sequence
